Test results: PubChem BioAssay AID2685 (National Center for Advancing Translational Sciences (NCATS), 2010)
Out of some 320,000 compounds screened, about 2,100 (0.66%) were called active. Inconclusive results, whose numbers are uncertain, are shown with a selection of clear calls. Calls come from the whole dose curve; as a rule, active = well fitted inhibition curve with a large enough effect in the signal ratio, with a control signal flat (not every such curve was filed as active); inconclusive = small, poorly fitted or top-dose-only effect, or effect the other way, or a change in a side signal; inactive = flat fitted curve, though single readings scatter; the % refers to the signal ratio. A potency beside an inconclusive call is a rough fit, not a confirmed value.

Assay: qHTS Assay for Lipid Storage Modulators in Drosophila S3 Cells
Conditions: BODIPY lipid droplet fluorescence, 18-24 h, cells fed with added oleic acid; lipid storage change, negative = inhibition: at 46.1 µM (top of the series) unless noted
Outline: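 Drosophila S3 cells loaded with oleic acid (400 uM, as added) and compounds at several concentrations; lipid droplets imaged by 488-nm laser-scanning cytometry, 500–530 nm intensity and object ratio to cell channel. Percent activity normalized to 20 uM Triacsin C.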
% is set by controls: 0 for no effect and ±100 for the full control effect; potency is the fitted concentration of half-maximal effect.

Row | SMILES | lipid storage change, negative = inhibition | Potency | outcome
1 | O=C(Nc1ncc2c(n1)-c1ccccc1CC2)C1CC1 | inconclusive: 4.06% | – | –
2 | COc1ccc(NC(=O)c2ccc(C#N)cc2)cc1NS(=O)(=O)c1ccc(F)cc1 | inconclusive: 10.9% | – | –
3 | CCC(C)n1nccc1NC(=O)C(C)OC(=O)c1cc2ccccc2[nH]1 (centres undefined) | – | inconclusive: 0.146 µM [activator, full curve, poor fit] | –
4 | Nc1ccc[n+](Cc2ccccn2)c1 | inconclusive: -37.1% | – | –
5 | Nc1nnnn1CC(=O)N/N=C/c1ccccn1 | inconclusive: -14.3% | – | –
6 | CCOc1ccc([C@@H]2CC=C(C(=O)O)[C@H](c3cccc(Cl)c3)N2S(=O)(=O)c2ccc(C)cc2)cc1 | – | inconclusive: 6.51 µM [activator, partial curve, poor fit] | –
7 | Cc1ccc(CNC(=O)c2cc3c(C)nc4ccccc4c3o2)cc1 | inconclusive: -66% | – | –
8 | c1coc(-c2nnc(SCc3nc4ccccc4[nH]3)o2)c1 | – | inconclusive: 4.11 µM [activator, full curve] | –
9 | CCOC(=O)N1CCC(N2CC34C=CC(O3)C(C(=O)Nc3ccc(OCC)cc3)C4C2=O)CC1 (centres undefined) | inconclusive: 8.4% [at 9.22 µM] | – | –
10 | CCCN1CCN(C(=O)CCCNC(=O)Cn2cnc3sc(C)c(C)c3c2=O)CC1 | – | inconclusive: 16.4 µM [falling, single point] | –
11 | COc1c2ccoc2c(OCC=C(C)C)c2oc(=O)ccc12 | – | inconclusive: 0.206 µM [activator, full curve] | –
12 | Cn1c2ccc(Br)cc2c2nnc(SCC(=O)O)nc21 | – | – | inactive [at 46.1 µM]
13 | CCCCc1ccc(N=N/C(C(=O)Nc2cc(OC)c(NC(C)=O)cc2OC)=C(/C)O)cc1 | – | inconclusive: 23.1 µM [falling, single point] | –
14 | O=C(CSc1nnc(COc2ccc(Cl)cc2)o1)NC1CCCCC1 | inconclusive: -4.01% | – | –
15 | CCOC(=O)c1sc(NC(=O)OC)c(C(=O)OC)c1C | inactive: -9.1% | – | –
16 | COc1ccc(NC2CCCN(C(=O)c3ccc4[nH]c(C)c(C)c4c3)C2)cc1 (centres undefined) | inconclusive: -142% | – | –
17 | COc1ccc(S(=O)(=O)N2CCCCCC2)cc1C(=O)N(C)CC(=O)Nc1ccccc1Br | inconclusive: 39.3% | – | –
18 | O=C1CC(N2CCOCC2)C(=O)N1c1ccccc1Cl (centres undefined) | inconclusive: 0.377% | – | –
19 | Cc1cc(NC2C3CC4CC(C3)CC2C4)n2ncnc2n1 (centres undefined) | – | inconclusive: 23.1 µM [falling, single point] | –
20 | NS(=O)(=O)c1ccc(CCNC(=O)c2ccc(C(=O)c3ccccc3)cc2)cc1 | – | inconclusive: 29.1 µM [activator, single point] | –
21 | Cc1cc(NC(=O)COC(=O)COc2ccc(C(=O)c3ccccc3)cc2)no1 | – | inconclusive: 20.6 µM [rising, single point] | –
22 | Fc1ccc(-c2cc(C(F)(F)C(F)F)[nH]n2)cc1 | inconclusive: 11.2% | – | –
23 | COc1cc2c(cc1OC)C(C)N(C(=O)c1cc3c(s1)-c1c(C)cccc1OC3)CC2 (centres undefined) | – | inconclusive: 9.2 µM [activator, partial curve] | –
24 | CCCCC1(C)NC(=S)N2N1C(=S)NC2(C)CCCC (centres undefined) | inconclusive: -3.07% | – | –
25 | Cc1ncc([N+](=O)[O-])n1CC(=O)NCCc1ccccc1 | – | inconclusive: 16.4 µM [falling, single point] | –
26 | Cc1ccc(-n2ccnc(SCC(=O)NC3CCCC3)c2=O)cc1Cl | inconclusive: -56.1% | – | –
27 | COC(=O)c1ccc(NC(=O)CCc2nnc3ccc(N4CCC5(CC4)OCCO5)nn23)cc1 | – | – | inactive [at 46.1 µM]

A few values from the list.
For Potency, Cc1cc(NC2C3CC4CC(C3)CC2C4)n2ncnc2n1 (centres undefined) is entered as inconclusive: 23.1 µM [falling, single point]
For lipid storage change, negative = inhibition, Cc1ccc(-n2ccnc(SCC(=O)NC3CCCC3)c2=O)cc1Cl is entered as inconclusive: -56.1%
For Potency, CCCN1CCN(C(=O)CCCNC(=O)Cn2cnc3sc(C)c(C)c3c2=O)CC1 is entered as inconclusive: 16.4 µM [falling, single point]
For lipid storage change, negative = inhibition, COc1ccc(NC2CCCN(C(=O)c3ccc4[nH]c(C)c(C)c4c3)C2)cc1 (centres undefined) is entered as inconclusive: -142%

Going on with the list:

Row | SMILES | lipid storage change, negative = inhibition | Potency | outcome
28 | COC(=O)c1nc(N)sc1-c1ccc(Cl)cc1 | inconclusive: -20.7% | – | –
29 | O=C(NCc1cccnc1)Nc1ccc2c(c1)OCO2 | inconclusive: 12.1% | – | –
30 | CC(C)CN1C(=O)c2ccccc2C1(O)Cc1ccccc1 (centres undefined) | inconclusive: -17.3% | – | –
31 | O=C(N/N=C/c1sc2ccccc2c1O)c1ccccc1 | – | inconclusive: 16.4 µM [falling, single point] | –
32 | CC(C)(C)NC(=O)COC(=O)c1cc(F)c(F)cc1Cl | – | inconclusive: 0.0052 µM [falling, full curve, poor fit] | –
33 | CCOC(=O)c1c(C)[nH]c(C)c1C(=O)COC(=O)c1ccc(S(=O)(=O)N(CC)CC)cc1 | inconclusive: 43.5% | – | –
34 | C/C(=N\NC(=O)c1ccc2c(c1)OCO2)c1ccc(O)cc1 | inconclusive: -14.1% | – | –
35 | N#C/C(=C\c1cn(CCOc2ccccc2F)c2ccccc12)C(=O)NCc1cccs1 | inconclusive: 21.9% | – | –
36 | CSc1nnc(NC(=O)c2ccc(C)c(S(=O)(=O)N3CCOCC3)c2)s1 | inconclusive: -6.09% | – | –
37 | CCN1CC=C2C(C#N)=C(N)C(C#N)(C#N)C(CCc3ccccc3)C2C1 (centres undefined) | – | inconclusive: 3.66 µM [activator, partial curve, poor fit] | –
38 | N#Cc1cc(-c2cccc(Cl)c2)c[nH]c1=O | – | inconclusive: 29.1 µM [cytotoxic, single point] | –
39 | C=CCSc1nc(Cc2ccc(Cl)cc2)nc2ccccc12 | inconclusive: 32.5% | – | –
40 | CC(C)[C@H](NC(=O)N1CCn2c1nc1ccccc12)C(=O)NC1CC1 | – | inconclusive: 29.1 µM [activator, single point] | –
41 | CC1(C)Cc2nc3oc4c(SCC(N)=O)ncnc4c3cc2CO1 | inconclusive: 6.5% | – | –
42 | Cc1sc2ncn(-n3c(C)ccc3C)c(=O)c2c1C | – | inconclusive: 3.26 µM [falling, full curve, poor fit] | –
43 | COc1ccc(C(=O)c2c3ccccc3[n+]([O-])n2Cc2ccc(C(N)=O)cc2)cc1 | – | inconclusive: 6.51 µM [falling, single point] | –
44 | CC(=O)N1c2ccc(S(=O)(=O)N3CCCC3)cc2CC1C(=O)NC(C)C (centres undefined) | – | inconclusive: 29.1 µM [activator, single point] | –
45 | O=C(NCc1ccccc1)C1(CC2CC(c3ccccc3)=NO2)CCNCC1 (centres undefined) | inconclusive: -79.1% | – | –
46 | Cc1ccc(C2CC(c3cccs3)=NN2C(=O)c2ccc(Br)o2)cc1 (centres undefined) | – | inconclusive: 29.1 µM [falling, single point] | –
47 | Cc1ccc(C2C(C#N)=C(N)SC(N)=C2C#N)o1 | inconclusive: 56.3% | – | –
48 | CCCC(=O)Nc1ccc(C(=O)Nc2cccc(OC)c2)cc1 | inconclusive: 77.6% | – | –
49 | NC(=O)Cc1ccc2sc(-c3ccccc3)nc2c1 | inconclusive: -67.4% | – | –
50 | O=C(CSc1nnc(-c2ccccc2F)o1)OCc1ccccc1 | inconclusive: -22.8% | – | –
51 | CCCSc1nc2c(cnn2-c2ccc(Cl)cc2)c(=O)[nH]1 | – | inconclusive: 1.16 µM [activator, full curve] | –
52 | Cc1cc(NC(=O)Cn2nnc(-c3ccccc3N)n2)no1 | inconclusive: -5.21% | – | –
53 | Cc1ccc(NC(=O)C(Nc2cccc(C)c2)c2ccccc2)cc1 (centres undefined) | inconclusive: 5.42% | – | –
54 | Cc1c(N(C(=O)c2cc(=O)[nH]c3ccccc23)C(C)C)c(=O)n(-c2ccccc2)n1C | inconclusive: 4.5% | – | –

Row | SMILES | lipid storage change, negative = inhibition | Potency | outcome
55 | O=C(CSc1nnc(CNc2ccc(F)cc2)o1)OC1CCCCC1 | inconclusive: 34.8% | – | –
56 | c1ccc2c(-c3nc4ncccc4o3)cccc2c1 | – | inconclusive: 5.17 µM [activator, partial curve] | –
57 | COc1ccc(C(=O)NNC(=O)c2cc3cc(OC)ccc3oc2=O)cc1 | inactive: 0.203% | – | –
58 | N#Cc1ccc(COc2ccc(CCO)cc2-n2nc3ccccc3n2)cc1 | inconclusive: 59.6% | – | –
59 | O=C(Cn1cnc2ccccc2c1=O)Nc1ccc(S(=O)(=O)N2CCOCC2)cc1 | inconclusive: 15.3% | – | –
60 | Cc1cccc(NC(=O)Cn2c(=O)n(CCc3c[nH]c4ccccc34)c(=O)c3cccnc32)c1 | – | inconclusive: 0.517 µM [activator, full curve] | –
61 | O=C(Nc1cccc(O)c1)c1cnn2cccnc12 | inconclusive: 315% | – | –
62 | CCOc1ccc(-c2cc(C(=O)NN)[nH]n2)cc1 | – | inconclusive: 0.92 µM [activator, full curve] | –
63 | COc1ccc(S(=O)(=O)N(CC(=O)O)c2ccccc2)cc1 | inconclusive: -20.5% | – | –
64 | COc1ccc(OCC(O)CNC(=O)Nc2ccc(F)cc2)cc1 (centres undefined) | inconclusive: -10.6% | – | –
65 | COc1ccccc1CNc1ccc(C(=O)O)cc1 | inconclusive: 40.8% | – | –
66 | Cc1noc(C)c1C(=O)Nc1nnc(CC(C)C)s1 | inactive: -7.24% | – | –
67 | CCOC(=O)N1CCN(C2CC(=O)N(c3ccc(C)cc3)C2=O)CC1 (centres undefined) | inconclusive: -56.8% | – | –
68 | C=CCn1c(N)cc(=O)nc1SCC(=O)Nc1ccccc1 | inconclusive: 5.37% | – | –
69 | Cn1nnnc1SCc1cn2cccnc2n1 | inconclusive: -33.6% | – | –
70 | O=C(COC(=O)COc1cccc(Br)c1)Nc1ccc(F)cc1F | – | inconclusive: 7.31 µM [falling, single point] | –
71 | COc1ccc(CC(=O)Nc2nc(-c3ccc(F)c(F)c3)cs2)cc1OC | – | active: 6.51 µM | –
72 | CCOC(=O)c1cc(S(=O)(=O)NC2CCC(C)CC2)cn1C (centres undefined) | inconclusive: -30.8% | – | –
73 | CN1CCN(C(=S)c2cn(Cc3ccccc3F)c3ccccc23)CC1 | inconclusive: 12% | – | –
74 | COc1ccc(N2CCN(C(CNC(=O)C(=O)NCC(OC)OC)c3ccco3)CC2)cc1 (centres undefined) | inconclusive: 60.9% | – | –
75 | O=C(CSc1nnnn1Cc1ccccc1)NC1CCCCC1 | inconclusive: -23.9% [at 9.22 µM] | – | –
76 | CCC1CCCCN1C(=O)CSc1nnc(CNC(=O)c2cc(OC)c(OC)c(OC)c2)o1 (centres undefined) | – | – | inactive [at 46.1 µM]
77 | Cc1nc2ccc(NS(=O)(=O)c3ccccc3F)cc2s1 | inactive: 12.6% | – | –
78 | Cc1cc(C(=O)OCC(=O)Nc2cc(S(=O)(=O)N(C)C)ccc2C)c(C)o1 | – | inconclusive: 20.6 µM [cytotoxic, single point] | –
79 | O=C(NC(=S)Nc1ccccc1N1CCOCC1)c1cccs1 | inconclusive: 22.4% | – | –
